Measured values from US20030186281A1, “Modified tetracycline repressor protein compositions and methods of use” (priority 2001, published 2003).
At least one structure is not confirmed: it was looked up by name or label, or the drawing left a doubt. Some entries repeat one wording, which the source may state once for all of them.

tested on: tet operator sequence; experiment: β-galactosidase activity of a tetracycline-regulated promoter in transformed E. coli with revTetR, in the presence and absence of anhydrotetracycline (atc); format: cell-based, Escherichia coli
Method: The relative activity of revTetR repressors was determined at 28° C. and 37° C. for each clone by measuring β-galactosidase activity of a tetracycline-regulated promoter in transformed Escherichia coli in the presence and absence of the tetracycline analog, anhydrotetracycline (atc). The relative β-galactosidase activity was measured in standard Miller units and is presented as the percent of maximal expression as measured in the absence of Tet repressor. […] With respect to each mutant, as well as the wild-type controls, FIG. 2 provides two horizontal bars; the upper horizontal bar represents the level of β-galactosidase activity in the absence of anhydrotetracycline (−atc) while the lower horizontal bar represents the level of β-galactosidase activity in the presence of anhydrotetracycline (+atc).
The pool of mutated Tet repressors was cloned into plasmid pWH1411 (Baumeister et al., 1992, Proteins: Struct. Funct. Genet. 14: 168-77), which carries a TetR(B) gene, to provide a TetR(BD) chimera that included, as the amino-terminal portion, amino acid residues 1 to 50 of the TetR(B) gene and, as the carboxyl-terminal portion, amino acid residues 51 to 208 of the TetR(D) gene. The resulting plasmid pool was screened in a genetic assay which positively selects for a functional interaction between a Tet repressor and its cognate operator using E. coli strain WH207(λWH25) (the construction of this strain is described in detail in Wissmann et al., (1991) Genetics 128: 225-32). In this E. coli strain, tet operators direct the expression of divergently arranged β-galactosidase (lacZ) and Lac repressor (lacI) genes and the lac regulatory region directs the expression of a galactokinase (galK) gene on plasmid pWH414. Binding of Tet repressors to tet operators turns off transcription of the lacI and lacZ genes. […]
The ability of each revTetR clone to bind to its cognate tet operator sequence and regulate transcription in a prokaryotic organism, Escherichia coli, in the presence and absence of a tetracycline analog (anhydrotetracycline, atc) was determined (Table 3, FIG. 2). […]

SMILES	strength as repressing agent compared with anhydrotetracycline
CN(C)[C@@H]1C(O)=C(C(N)=O)C(=O)[C@@]2(O)C(O)=C3C(=O)c4c(O)ccc(Cl)c4[C@@](C)(O)[C@H]3C[C@@H]12 [chlorotetracycline, reference compound]	weaker repressing agents
CN(C)[C@@H]1C(O)=C(C(N)=O)C(=O)[C@@]2(O)C(O)=C3C(=O)c4c(O)cccc4[C@@](C)(O)[C@H]3C[C@@H]12 [Tetracycline, tetracycline]	weaker repressing agents
CN(C)[C@@H]1C(O)=C(C(N)=O)C(=O)[C@@]2(O)C(O)=C3C(=O)c4c(O)cccc4[C@@](C)(O)[C@H]3[C@H](O)[C@@H]12 [oxytetracycline, reference compound]	weaker repressing agents
